Laboratory results reported in paper PMC7244511, “Phosphoproteomics identifies dual-site phosphorylation in an extended basophilic motif regulating FILIP1-mediated degradation of filamin-C” (Communications Biology, 2020).

Amino acid sequences for entries named in this document (tags omitted). A change or cut given only in a name is not applied to a line headed by its entry. Chains listed by the source or under a name are the forms on record and can include a tag or linker.
UniProt Q14315: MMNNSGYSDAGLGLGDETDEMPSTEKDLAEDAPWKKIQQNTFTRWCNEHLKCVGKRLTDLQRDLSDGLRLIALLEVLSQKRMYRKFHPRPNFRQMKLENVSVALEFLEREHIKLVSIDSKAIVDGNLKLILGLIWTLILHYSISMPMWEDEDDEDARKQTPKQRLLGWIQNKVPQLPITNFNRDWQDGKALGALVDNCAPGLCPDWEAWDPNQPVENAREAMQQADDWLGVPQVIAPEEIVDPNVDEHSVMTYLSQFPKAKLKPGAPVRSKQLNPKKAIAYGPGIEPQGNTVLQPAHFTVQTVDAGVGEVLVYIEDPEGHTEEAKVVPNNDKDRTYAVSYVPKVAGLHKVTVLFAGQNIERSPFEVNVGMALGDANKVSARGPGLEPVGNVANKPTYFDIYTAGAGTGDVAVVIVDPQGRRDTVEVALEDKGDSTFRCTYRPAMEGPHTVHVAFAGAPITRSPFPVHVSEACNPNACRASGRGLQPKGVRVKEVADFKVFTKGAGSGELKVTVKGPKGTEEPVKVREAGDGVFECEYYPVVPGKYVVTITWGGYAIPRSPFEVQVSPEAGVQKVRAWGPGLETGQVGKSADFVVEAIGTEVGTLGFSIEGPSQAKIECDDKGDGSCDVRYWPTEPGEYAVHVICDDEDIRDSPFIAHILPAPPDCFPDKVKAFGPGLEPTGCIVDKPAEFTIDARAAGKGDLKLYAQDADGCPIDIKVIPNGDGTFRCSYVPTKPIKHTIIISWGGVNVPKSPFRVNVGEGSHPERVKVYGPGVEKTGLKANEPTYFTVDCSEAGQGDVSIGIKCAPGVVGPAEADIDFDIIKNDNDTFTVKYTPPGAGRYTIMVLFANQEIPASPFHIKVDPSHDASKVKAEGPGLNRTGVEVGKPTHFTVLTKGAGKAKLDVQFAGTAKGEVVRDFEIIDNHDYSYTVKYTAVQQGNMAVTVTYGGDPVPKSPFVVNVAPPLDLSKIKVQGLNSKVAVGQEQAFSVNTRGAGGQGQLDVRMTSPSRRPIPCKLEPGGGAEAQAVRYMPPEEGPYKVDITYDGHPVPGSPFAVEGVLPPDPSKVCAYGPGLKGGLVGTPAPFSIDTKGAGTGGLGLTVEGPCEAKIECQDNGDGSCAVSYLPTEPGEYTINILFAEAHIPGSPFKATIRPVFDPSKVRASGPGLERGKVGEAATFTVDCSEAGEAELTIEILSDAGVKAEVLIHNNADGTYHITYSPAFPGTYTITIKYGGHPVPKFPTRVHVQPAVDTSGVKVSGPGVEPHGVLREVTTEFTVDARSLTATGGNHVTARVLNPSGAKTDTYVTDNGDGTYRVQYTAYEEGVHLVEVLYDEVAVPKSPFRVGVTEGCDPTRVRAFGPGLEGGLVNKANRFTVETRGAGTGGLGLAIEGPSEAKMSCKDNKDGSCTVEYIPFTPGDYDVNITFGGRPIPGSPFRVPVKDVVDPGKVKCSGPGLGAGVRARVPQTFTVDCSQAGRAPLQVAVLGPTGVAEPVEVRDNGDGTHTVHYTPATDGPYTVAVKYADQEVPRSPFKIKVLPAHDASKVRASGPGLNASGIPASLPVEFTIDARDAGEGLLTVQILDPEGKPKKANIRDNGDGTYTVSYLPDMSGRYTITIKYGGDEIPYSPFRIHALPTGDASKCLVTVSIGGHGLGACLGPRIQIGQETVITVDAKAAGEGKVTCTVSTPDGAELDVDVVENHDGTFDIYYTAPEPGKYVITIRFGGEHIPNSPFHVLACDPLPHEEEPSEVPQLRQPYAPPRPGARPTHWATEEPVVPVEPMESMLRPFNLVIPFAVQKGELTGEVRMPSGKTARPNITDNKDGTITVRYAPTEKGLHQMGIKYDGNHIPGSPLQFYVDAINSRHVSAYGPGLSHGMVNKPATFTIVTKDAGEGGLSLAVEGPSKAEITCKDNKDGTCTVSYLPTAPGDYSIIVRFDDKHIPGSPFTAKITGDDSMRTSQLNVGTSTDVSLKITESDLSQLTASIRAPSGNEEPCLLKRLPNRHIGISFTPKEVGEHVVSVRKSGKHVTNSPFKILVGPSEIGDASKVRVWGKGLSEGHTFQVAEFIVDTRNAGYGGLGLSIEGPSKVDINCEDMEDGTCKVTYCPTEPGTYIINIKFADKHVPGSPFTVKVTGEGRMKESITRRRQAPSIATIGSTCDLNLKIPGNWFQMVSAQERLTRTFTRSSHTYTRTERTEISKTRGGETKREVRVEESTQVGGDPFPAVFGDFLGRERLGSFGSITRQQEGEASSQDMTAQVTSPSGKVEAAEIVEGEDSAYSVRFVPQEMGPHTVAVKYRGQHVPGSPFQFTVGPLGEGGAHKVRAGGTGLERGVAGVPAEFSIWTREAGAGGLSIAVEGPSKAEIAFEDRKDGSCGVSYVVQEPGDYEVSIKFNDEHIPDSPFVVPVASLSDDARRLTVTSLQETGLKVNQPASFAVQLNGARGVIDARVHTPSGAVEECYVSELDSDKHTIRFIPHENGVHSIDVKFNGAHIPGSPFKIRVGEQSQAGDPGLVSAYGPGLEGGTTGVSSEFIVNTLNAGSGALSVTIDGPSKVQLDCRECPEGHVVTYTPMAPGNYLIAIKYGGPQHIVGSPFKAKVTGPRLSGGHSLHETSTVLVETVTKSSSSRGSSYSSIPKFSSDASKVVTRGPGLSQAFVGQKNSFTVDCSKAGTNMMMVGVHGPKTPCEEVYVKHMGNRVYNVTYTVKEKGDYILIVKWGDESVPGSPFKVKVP
UniProt Q99JI1: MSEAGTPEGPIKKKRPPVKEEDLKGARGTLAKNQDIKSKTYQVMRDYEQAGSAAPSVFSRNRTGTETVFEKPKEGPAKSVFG
UniProt Q6P5H2: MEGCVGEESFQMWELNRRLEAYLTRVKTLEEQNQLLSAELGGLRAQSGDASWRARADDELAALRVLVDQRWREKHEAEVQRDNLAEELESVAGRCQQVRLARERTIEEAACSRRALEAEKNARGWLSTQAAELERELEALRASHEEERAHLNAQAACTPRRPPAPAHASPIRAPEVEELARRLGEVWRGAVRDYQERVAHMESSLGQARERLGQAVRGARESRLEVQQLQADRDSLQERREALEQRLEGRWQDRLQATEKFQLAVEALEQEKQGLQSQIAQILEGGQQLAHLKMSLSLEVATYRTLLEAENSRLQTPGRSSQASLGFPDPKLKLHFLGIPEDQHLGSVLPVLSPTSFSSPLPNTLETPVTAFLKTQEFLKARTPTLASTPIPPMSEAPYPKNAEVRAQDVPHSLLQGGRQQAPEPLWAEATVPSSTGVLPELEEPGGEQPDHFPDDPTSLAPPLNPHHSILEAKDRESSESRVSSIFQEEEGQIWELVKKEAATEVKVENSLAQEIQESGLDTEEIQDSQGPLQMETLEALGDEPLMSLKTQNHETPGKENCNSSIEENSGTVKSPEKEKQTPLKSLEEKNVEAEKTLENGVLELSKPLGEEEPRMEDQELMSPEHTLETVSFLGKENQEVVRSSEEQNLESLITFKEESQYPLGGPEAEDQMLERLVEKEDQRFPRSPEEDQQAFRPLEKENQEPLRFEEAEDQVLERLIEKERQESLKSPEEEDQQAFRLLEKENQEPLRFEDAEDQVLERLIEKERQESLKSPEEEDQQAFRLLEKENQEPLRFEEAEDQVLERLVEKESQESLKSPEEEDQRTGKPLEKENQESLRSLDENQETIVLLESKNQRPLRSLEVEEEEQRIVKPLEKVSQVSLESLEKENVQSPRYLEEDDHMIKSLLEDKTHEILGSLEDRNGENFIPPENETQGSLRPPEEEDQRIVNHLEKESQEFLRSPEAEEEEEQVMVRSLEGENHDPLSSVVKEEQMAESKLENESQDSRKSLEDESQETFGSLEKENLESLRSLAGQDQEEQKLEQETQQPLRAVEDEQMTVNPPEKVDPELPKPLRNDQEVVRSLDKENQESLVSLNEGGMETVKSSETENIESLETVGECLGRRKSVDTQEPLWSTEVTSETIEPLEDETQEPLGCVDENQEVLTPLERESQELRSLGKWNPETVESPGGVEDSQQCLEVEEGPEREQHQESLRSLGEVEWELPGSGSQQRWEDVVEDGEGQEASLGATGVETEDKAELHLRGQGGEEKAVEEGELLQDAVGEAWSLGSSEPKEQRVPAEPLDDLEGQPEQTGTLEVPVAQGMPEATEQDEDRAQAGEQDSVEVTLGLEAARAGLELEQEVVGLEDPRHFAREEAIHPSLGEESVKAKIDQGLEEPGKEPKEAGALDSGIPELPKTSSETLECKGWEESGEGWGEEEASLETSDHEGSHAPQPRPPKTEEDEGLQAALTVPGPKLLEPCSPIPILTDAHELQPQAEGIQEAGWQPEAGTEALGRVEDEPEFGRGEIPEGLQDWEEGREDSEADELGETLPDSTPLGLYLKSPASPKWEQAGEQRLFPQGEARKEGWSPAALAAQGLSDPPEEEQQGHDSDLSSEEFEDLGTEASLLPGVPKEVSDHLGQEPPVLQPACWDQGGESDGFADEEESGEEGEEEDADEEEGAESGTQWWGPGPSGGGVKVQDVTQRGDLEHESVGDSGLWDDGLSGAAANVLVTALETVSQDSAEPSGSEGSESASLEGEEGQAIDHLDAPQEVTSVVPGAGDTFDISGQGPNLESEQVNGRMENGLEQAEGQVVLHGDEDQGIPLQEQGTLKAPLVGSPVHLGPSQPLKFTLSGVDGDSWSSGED
Xin actin-binding repeat-containing protein 1 (Xirp1) (O70373, form named): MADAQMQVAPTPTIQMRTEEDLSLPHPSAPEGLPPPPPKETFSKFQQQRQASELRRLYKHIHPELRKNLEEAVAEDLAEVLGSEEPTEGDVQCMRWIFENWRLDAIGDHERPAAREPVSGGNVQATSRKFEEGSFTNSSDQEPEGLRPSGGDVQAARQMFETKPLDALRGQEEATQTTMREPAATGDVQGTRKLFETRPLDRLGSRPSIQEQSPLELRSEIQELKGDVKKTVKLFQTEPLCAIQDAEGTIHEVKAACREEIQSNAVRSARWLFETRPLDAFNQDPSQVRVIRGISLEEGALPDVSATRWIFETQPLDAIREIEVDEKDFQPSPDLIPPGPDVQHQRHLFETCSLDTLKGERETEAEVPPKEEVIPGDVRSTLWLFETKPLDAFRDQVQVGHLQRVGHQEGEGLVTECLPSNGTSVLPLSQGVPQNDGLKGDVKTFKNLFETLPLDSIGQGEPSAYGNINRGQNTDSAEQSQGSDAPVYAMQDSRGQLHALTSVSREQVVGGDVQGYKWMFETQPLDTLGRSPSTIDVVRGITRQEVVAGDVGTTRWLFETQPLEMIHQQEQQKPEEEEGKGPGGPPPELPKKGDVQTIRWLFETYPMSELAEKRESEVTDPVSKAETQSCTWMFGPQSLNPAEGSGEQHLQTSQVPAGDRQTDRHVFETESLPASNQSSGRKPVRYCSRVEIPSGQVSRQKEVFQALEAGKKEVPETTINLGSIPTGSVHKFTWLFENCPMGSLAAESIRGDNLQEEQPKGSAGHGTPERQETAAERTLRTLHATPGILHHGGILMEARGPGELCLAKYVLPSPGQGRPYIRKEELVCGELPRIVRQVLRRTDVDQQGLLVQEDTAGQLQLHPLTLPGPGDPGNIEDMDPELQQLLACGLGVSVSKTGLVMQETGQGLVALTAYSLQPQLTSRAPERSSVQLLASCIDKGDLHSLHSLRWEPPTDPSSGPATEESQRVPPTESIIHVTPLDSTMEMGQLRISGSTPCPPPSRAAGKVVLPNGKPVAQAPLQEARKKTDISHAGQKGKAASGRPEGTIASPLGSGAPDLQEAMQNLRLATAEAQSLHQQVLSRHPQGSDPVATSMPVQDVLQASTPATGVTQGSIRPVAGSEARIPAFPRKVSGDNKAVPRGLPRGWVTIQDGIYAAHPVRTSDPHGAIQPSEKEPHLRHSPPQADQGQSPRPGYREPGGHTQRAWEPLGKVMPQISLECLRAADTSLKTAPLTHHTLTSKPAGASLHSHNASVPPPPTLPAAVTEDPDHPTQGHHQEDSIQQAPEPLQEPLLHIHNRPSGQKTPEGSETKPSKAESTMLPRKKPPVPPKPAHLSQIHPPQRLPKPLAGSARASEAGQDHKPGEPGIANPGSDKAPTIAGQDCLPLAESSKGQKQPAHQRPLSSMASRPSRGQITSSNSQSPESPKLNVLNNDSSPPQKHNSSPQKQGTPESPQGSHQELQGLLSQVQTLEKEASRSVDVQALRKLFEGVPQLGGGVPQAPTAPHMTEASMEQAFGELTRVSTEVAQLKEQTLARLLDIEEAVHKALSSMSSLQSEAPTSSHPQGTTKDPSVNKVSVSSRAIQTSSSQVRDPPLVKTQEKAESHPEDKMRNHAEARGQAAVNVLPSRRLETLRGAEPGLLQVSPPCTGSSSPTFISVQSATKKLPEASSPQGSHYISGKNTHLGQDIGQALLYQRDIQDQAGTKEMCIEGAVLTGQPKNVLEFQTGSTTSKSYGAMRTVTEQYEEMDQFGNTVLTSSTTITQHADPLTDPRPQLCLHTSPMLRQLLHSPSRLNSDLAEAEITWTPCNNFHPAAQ

B1: Cnn3 (protein, UniProt Q9DAW9 1-330)
chain: MTHFNKGPSYGLSAEVKNKIASKYDQQAEEDLRNWIEEVTGLGIGTNFQLGLKDGIILCELINKLQPGSVKKVNESSLNWPQLENIGNFIKAIQAYGMKPHDIFEANDLFENGNMTQVQTTLVALAGLAKTKGFHTTIDIGVKYAEKQTRRFDEGKLKAGQSVIGLQMGTNKCASQAGMTAYGTRRHLYDPKMQTDKPFDQTTISLQMGTNKGASQAGMLAPGTRRDIYDQKLTLQPVDNSTISLQMGTNKVASQKGMSVYGLGRQVYDPKYCAAPTEPVIHNGSQGTGTNGSEISDSDYQAEYPDEYHGEYPDDYPREYQYGDDQGIDY
B2: Rtn4 (protein, UniProt Q99P72 1-1162)
chain: MEDIDQSSLVSSSADSPPRPPPAFKYQFVTEPEDEEDEEDEEEEEDDEDLEELEVLERKPAAGLSAAPVPPAAAPLLDFSSDSVPPAPRGPLPAAPPTAPERQPSWERSPAASAPSLPPAAAVLPSKLPEDDEPPARPPAPAGASPLAEPAAPPSTPAAPKRRGSGSVDETLFALPAASEPVIPSSAEKIMDLKEQPGNTVSSGQEDFPSVLFETAASLPSLSPLSTVSFKEHGYLGNLSAVASTEGTIEETLNEASRELPERATNPFVNRESAEFSVLEYSEMGSSFNGSPKGESAMLVENTKEEVIVRSKDKEDLVCSAALHNPQESPATLTKVVKEDGVMSPEKTMDIFNEMKMSVVAPVREEYADFKPFEQAWEVKDTYEGSRDVLAARANMESKVDKKCFEDSLEQKGHGKDSESRNENASFPRTPELVKDGSRAYITCDSFSSATESTAANIFPVLEDHTSENKTDEKKIEERKAQIITEKTSPKTSNPFLVAIHDSEADYVTTDNLSKVTEAVVATMPEGLTPDLVQEACESELNEATGTKIAYETKVDLVQTSEAIQESIYPTAQLCPSFEEAEATPSPVLPDIVMEAPLNSLLPSTGASVAQPSASPLEVPSPVSYDGIKLEPENPPPYEEAMSVALKTSDSKEEIKEPESFNAAAQEAEAPYISIACDLIKETKLSTEPSPEFSNYSEIAKFEKSVPDHCELVDDSSPESEPVDLFSDDSIPEVPQTQEEAVMLMKESLTEVSETVTQHKHKERLSASPQEVGKPYLESFQPNLHITKDAASNEIPTLTKKETISLQMEEFNTAIYSNDDLLSSKEDKMKESETFSDSSPIEIIDEFPTFVSAKDDSPKEYTDLEVSNKSEIANVQSGANSLPCSELPCDLSFKNTYPKDEAHVSDEFSKSRSSVSKVPLLLPNVSALESQIEMGNIVKPKVLTKEAEEKLPSDTEKEDRSLTAVLSAELNKTSVVDLLYWRDIKKTGVVFGASLFLLLSLTVFSIVSVTAYIALALLSVTISFRIYKGVIQAIQKSDEGHPFRAYLESEVAISEELVQKYSNSALGHVNSTIKELRRLFLVDDLVDSLKFAVLMWVFTYVGALFNGLTLLILALISLFSIPVIYERHQAQIDHYLGLANKSVKDAMAKIQAKIPGLKRKAE
B3: Pdlim3 (protein, UniProt O70209 1-316)
chain: MPQNVVLPGPAPWGFRLSGGIDFNQPLVITRITPGSKAAAANLCPGDVILAIDGFGTESMTHADAQDRIKAASYQLCLKIDRAETRLWSPQVSEDGKAHPFKINLEAEPQEFKPIGTAHNRRAQPFVAAANIDDKRQVVSASYNSPIGLYSTSNIQDALHGQLRGLIPGSLQNEPTASVPPQSDVYRMLHDNRDDPAAPRQSGSFRVLQDLVNDGPDDRPAGTRSVRAPVTKVHGGAGSAQRMPLCDKCGSGIVGAVVKARDKYRHPECFVCADCNLNLKQKGYFFVEGELYCETHARARTRPPEGYDTVTLYPKA
B4: endogenous filamin A-interacting protein 1 (FILIP1) (protein, UniProt Q9CS72 1-1214)
chain: MRSRNQGGESSSNGHVSCPKPSIISSDGGKGPSEDAKKNKANRKGEDDVMASGTVKRHLKPSGESEKKTKKPLELSKEDLIQLLSIMEGELQAREDVIHMLKTEKTKPEVLEAHYGSAEPEKVLRVLHRDAILAQEKSIGEDVYEKPISELDRLEEKQKETYRRMLEQLLLAEKCHRRTVYELENEKHKHTDYMNKSDDFTNLLEQERERLKKLLEQEKAYQARKEKENAKRLNKLRDELVKLKSFALMLVDERQMHIEQLGLQSQKVQDLTQKLREEEEKLKAITYKSKEDRQKLLKLEVDFEHKASRFSQEHEEMNAKLANQESHNRQLRLKLVGLSQRIEELEETNKSLQKAEEELQELRDKIAKGECGNSSLMAEVESLRKRVLEMEGKDEEITKTEAQCRELKKKLQEEEHHSKELRLEVEKLQKRMSELEKLEEAFSRSKSECTQLHLNLEKEKNLTKDLLNELEVVKSRVKELECSESRLEKVELSLKDDLTKLKSFTVMLVDERKNMMEKIKQEERKVDGLNKNFKVEQGKVMDVTEKLIEESKKLLKLKSEMEEKVYSLTKERDELMGKLRSEEERSCELSCSVDLLKKRLDGIEEVEREINRGRLCKGSEFTCPEDNKIRELTLEIERLKKRLQQLEVVEGDLMKTEDEYDQLEQKFRTEQDKANFLSQQLEEIKHQMAKNKAIEKGEAVSQEAELRHRFRMEEAKSRDLQAEVQALKEKIHELMNKEDQLSQLQVDYSVLQQRFMEEETKNKNMGREVLNLTKELELSKRYSRALRPSGNGRRMVDVPVASTGVQTEAVCGDAAEEETPAVFIRKSFQEENHIMSNLRQVGLKKPMERSSVLDRYPPAANELTMRKSWIPWMRKRENGPSAPQEKGPRPNQGTGHPGELVLAPKQGQPLHIRVTPDHENSTATLEITSPTSEEFFSSTTVIPTLGNQKPRITIIPSPNVMSQKPKSADPTLGPERAMSPVTITTISREKSPEGGRGAFADRPASPIQIMTVSTSAAPPEIAVSPDSQEVPMGRTILKVTPEKQTVPTPMRKYNANANIITTEDNKIHIHLGSQFKRSPGPAAAEGVSPVITVRPVNVTAEKEVSTGTVLRSPRNHLSSRPGANKVTSTITITPVTTSSTRGTQSVSGQDGSSQRPTPTRIPMSKGMKAGKPVVAAPGAGNLTKFQPRAETQSMKIELKKSAASSTASLGGGKG
B5: Sorbs1 (protein, UniProt Q62417 1-1290)
chain: MSSECDVGSSKAVVNGLASGNHGPDKDMDPTKICTGKGTVTLRASSSYRGTPSSSPVSPQESPKHESKSGLEPEDPSADEWKLSSSADTNGNAQPSPLAAKGYRSVHPSLSADKPQGSPLLNEVSSSHIETDSQDFPPTSRPSSAYPSTTIVNPTIVLLQHNRDPASERRAGEQDPVPTPAELTSPGRASERRAKDASRRVVRSAQDLSDVSTDEVGIPLRNTERSKDWYKTMFKQIHKLNRDDDSDVHSPRYSFSDDTKSPLSVPRSKSEMNYIEGEKVVKRSATLPLPARSSSLKSSPERNDWEPLDKKVDTRKYRAEPKSIYEYQPGKSSVLTNEKMSRDISPEEIDLKNEPWYKFFSELEFGRPTNLEKDLSFCQAELEADLEKVETVNKSPSANSPQSSAVSPTPDITSEPPGYIYSSNFHAVKRESDGTPGGLASLENERQIYKSVLEGGDIPLQGLSGLKRPSSSASTKVDRKGGNAHMISSSSVHSRTFHTSNALGPGCKHKKPLSAAKACISEILPSKFKPRLSAPSALLQEQKSVLLPSEKAQSCENLCVSLNDSKRGLPLRVGGSIENLLMRSRRDYDSKSSSTMSLQEYGTSSRRPCPLSRKAGLHFSMFYRDMHQINRAGLSLGSISSSSVRDLASHFERSSLTLARGELGASQEGSEHIPKHTVSSRITAFEQLIQRSRSMPSLDFSGRLSKSPTPVLSRSGLTSARSAESLLESTKLRPREMDGMDSGGVYASPTCSNMADHALSFRSLVPSEPLSICSDELDHCSNVSNDSREGSGGSVHGDFPKHRLNKCKGTCPASYTRFTTIRKHEQQSSRQSDWRSDSRGDKNSLLRNIHLMSPLPFRLKKPLQQHPRQPPPSDSSESPAGQKADLPCHDPQDQPHSAGKPQVPTRLSSRHTMARLSHNSEPPLDRPAGLEDCTRAINNGNPVPYSDHGLDRNNNPQSELAAAHGDSESPRHFIPADYLESTEEFIRRRHDDKEKLLADQRRLKREQEEADIAARRHTGVIPTHHQFITNERFGDLLNIDDTAKRKSGLEMRPARAKFDFKAQTLKELPLQKGDVVYIYRQIDQNWYEGEHHGRVGIFPRTYIELLPPAEKAQPRKLAPVQVLEYGEAIAKFNFNGDTQVEMSFRKGERITLLRQVDENWYEGRIPGTSRQGIFPITYVDVLKRPLVKTPVDYIDLPYSSSPSRSATVSPQQPQAQQRRVTPDRSQPSLDLCSYQALYSYVPQNDDELELRDGDIVDVMEKCDDGWFVGTSRRTRQFGTFPGNYVKPLYL
B6: Unc45b (protein, UniProt Q8CGY6 1-931)
chain: MAEAEAAQLKEEGNRHFQLQDYKAATKSYSQALKLTKDKALLATLYRNRAACGLKMESYAQAASDASRAIDINSADIKALYRRCQALEHLGKLDQAFKDVQRCATLEPRNQNFQETLRRLNTSIQEQLRVQFSTDSRVQTMFEILLNENSEADKREKAANNLIVLGREEAGAERIFQSNGVALLLQLMNTQRPELLLAAVRTLSGMCSGHRARATAILHAVRIDRICSLMALENEEMSLAVCNLLQAIIDSLSGEDKREHRGKEEALVLDTKKDLKQITSHLLDMLVSKKVSGQGRDQALNLLNKNVPRKDLSIHDNSRTIYVVDNGLRKILKVVGQVPDLPSCLPLTDNTRMLASILINKLYDDLRCDPERDHFRKICEEYITSKFDPQDMDKNVNAIQTVSGILQGPFDLGNQLLGMKGVMEMMVALCGSEREADQLVAVEALIHASTKLSRATFIITNGVTLLKQIYKTTKNEKIKIRTLVGLCKLGSAGGSDYGLRQFAEGSTEKLAKQCRKWLCNTAIDTRTRRWAVEGLAYLTLDADVKDDFVQDIPALQAMFELAKARTSDKTILYSVANTLVNCTNSYDVKEVVPELVQLAKFSKQHVPEEHPKDKKDFVDLRVKRLLKAGVISALACMVKADSAILTDQTKELLARVFLALCDNPKDRGTIVAQGGGKALIPLALEGTDVGKVKAAHGLAKIAAVSNPDIAFPGERVYEVVRPLVSLLDTQRDGLQNYEALLGLTNLSGRSDKLRQKIFKEKALPDIENYMFENHDQLRQAATECMCNMVLNKEVQERFLADGNDRLKLVVLLCGEDDHKLQNAAAGALAMLTAAHKKLCLKMTEVTTQWLEILQRLCLHDQLSVQHRGLVIAHNLLSADAELARKLVESELLEILTVVGKQEPDEKRAAVVQTARECLIKCMDYGFIKPVS

Each molecule was assayed against BirA*hFLNc d18–21 (human) (UniProt Q14315) (assay: proximity labelling; BioID with SILAC in contracting C2 myotubes expressing BirA* or BirA*hFLNc d18–21; 50 μM biotin for 24 h; biotinylated proteins enriched on streptavidin Dynabeads, LC-MS; controls BirA* + biotin and bait without biotin).

binding, binds:
Bcl-2-associated athanogene 3 (Bag3) (from UniProt Q9JLV1 1-577), Ccdc141 (from UniProt E9Q8Q6 1-1531), Cttn (from UniProt Q60598 1-546), Dst (from UniProt Q91ZU6 1-7393), LIM domain binding 3 (Ldb3/ZASP/cypher) (from UniProt Q9JKS4 1-723), Macf1 (from UniProt Q9QXZ0 1-7354), Mustn1 (from UniProt Q99JI1 1-82), Neb (from UniProt E9Q1W3 1-7152), Nes (from UniProt Q6P5H2 1-1864), Nrap (from UniProt Q80XB4 1-1728), Svil (from UniProt Q8K4L3 1-2170), Xin actin-binding repeat-containing protein 1 (Xirp1) (from UniProt O70373 1-1813), endogenous mouse filamin-C (mFLNc) (from UniProt Q8VHX6 1-2726), B1, B2, B3, B4, B5, B6

Results are given in words; binding and its absence hold for the method and conditions named. Binding seen in cells or lysates may run through a third protein. Here binding means that the protein was enriched with, or labelled near, the bait; the list need not be complete.
